Our source for the binding values is article PMC12847786.

The target in this test is T1, Cellular communication network factor 1 (CCN1) (UniProt P18406).
T1 sequence: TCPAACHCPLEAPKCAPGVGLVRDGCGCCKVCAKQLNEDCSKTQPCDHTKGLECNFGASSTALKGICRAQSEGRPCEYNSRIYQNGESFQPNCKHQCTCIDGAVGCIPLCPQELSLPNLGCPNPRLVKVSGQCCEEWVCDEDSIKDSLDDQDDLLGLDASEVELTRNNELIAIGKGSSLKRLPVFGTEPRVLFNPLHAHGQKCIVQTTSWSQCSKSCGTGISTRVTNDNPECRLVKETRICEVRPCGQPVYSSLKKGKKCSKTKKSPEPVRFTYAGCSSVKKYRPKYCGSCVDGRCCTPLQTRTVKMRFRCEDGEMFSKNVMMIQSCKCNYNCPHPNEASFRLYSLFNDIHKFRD
Nature of the test: affinity purification with mass spectrometry; lysate in IP lysis buffer, anti-CCN1 antibody or control IgG overnight at 4 °C, magnetic beads, SDS-PAGE, gel bands digested with trypsin, LC-MS/MS; hits compared with IgG control and overlapped with BioGRID.

Results are given in words; binding and its absence hold for the method and conditions named. In cells and extracts the contact can be indirect. Here binding means that the protein was enriched with, or labelled near, the bait; the list need not be complete.

Take “integrin αvβ5 (mouse (endogenous in BMDMs)) (complex)”: the binding entry is “binds”.
